Reference: PubChem BioAssay AID1259405 (NCATS, 2018)
Assay: 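Silenced genes that increase secreted GFP made by CHO cells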 (primary screen). Cells: Chinese hamster CHO-K1 ovary cells with stable secreted eGFP expression. Reagents: single siRNA against mouse genes, 0.8 pmol siRNA per well (2 µl of 400 nM stock). Duration: 3 days. Read-out: 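Percent of the per-plate non-targeting control median for intracellular GFP per well by laser scanning cytometry and for cell viability by ATP luminescence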. Reading the numbers: GFP, % of control: higher = more GFP per well, higher productivity. Call rule: 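a knock-down is called active if GFP reaches 120% or more of non-targeting control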.
Here is an unselected part of about 50,000 reagents tested. About 4,000 of all reagents (8%) count as active. 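Mouse siRNA library applied to hamster cells; one well for each siRNA.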 Not all columns of the deposit are shown.

GFP, % of control, by gene and reagent
Sgcb: SID363554927 78.3 inactive; SID363568374 71.1 inactive; SID363586433 77.9 inactive
Or8s2: SID363544500 96.6 inactive; SID363550828 83.1 inactive; SID363557377 98.3 inactive
Alas1: SID363570686 80.5 inactive; SID363579486 48.9 inactive; SID363583358 79.4 inactive
Zbed4: SID363556821 46.3 inactive; SID363563725 38.5 inactive; SID363587271 79.8 inactive
Glis3: SID363573285 76.6 inactive; SID363588524 105 inactive
Pax4: SID363569253 128 active; SID363583685 83.1 inactive
Clec14a: SID363540799 82.8 inactive; SID363543250 82.8 inactive; SID363552743 112 inactive
Ribc1: SID363541154 34 inactive; SID363555781 76.4 inactive; SID363566070 84.2 inactive
Wdr25: SID363546551 59.1 inactive; SID363548307 84 inactive; SID363560485 95.2 inactive
Cd177: SID363540745 135 active; SID363543196 119 inactive; SID363552689 82.7 inactive
Hsd17b1: SID363575078 83.3 inactive; SID363580710 157 active; SID363582822 112 inactive
Cstf2t: SID363569320 75.3 inactive; SID363577064 78.5 inactive; SID363578472 85.3 inactive
A730008H23Rik: SID363542939 43.3 inactive; SID363546456 72.4 inactive; SID363548212 61 inactive
Wdr93: SID363540503 88.1 inactive; SID363542255 52.7 inactive; SID363567171 89.6 inactive
Sh3bgr: SID363554975 43 inactive; SID363568422 63.2 inactive; SID363586481 68 inactive

Sorted by “GFP, % of control” (high to low): 5 of the entries above
gene	PubChem SID	GFP, % of control	Call
Wdr93	SID363567171	89.6	inactive
Wdr93	SID363540503	88.1	inactive
A730008H23Rik	SID363546456	72.4	inactive
A730008H23Rik	SID363548212	61	inactive
Wdr93	SID363542255	52.7	inactive

More reagents follow.
GFP, % of control, by gene and reagent
Oacyl: SID363552332 64.4 inactive; SID363585468 84.1 inactive; SID363585819 82.5 inactive
Zfp54: SID363541024 37.5 inactive; SID363555651 73.6 inactive; SID363565940 83.1 inactive
Mapk6: SID363570972 98.2 inactive
Foxa3: SID363573452 73.5 inactive; SID363588691 87.9 inactive
Mier1: SID363573392 37 inactive; SID363588631 104 inactive
Cpne5: SID363550089 73.4 inactive; SID363564598 52.3 inactive; SID363588143 108 inactive
Qars1: SID363572586 128 active; SID363577866 77.1 inactive; SID363582090 82.6 inactive
Pop5: SID363554506 53.5 inactive; SID363567953 106 inactive; SID363586012 63.4 inactive
Dnaaf9: SID363542320 59.7 inactive; SID363551811 61.7 inactive; SID363559416 94.3 inactive
Or4a67: SID363554405 82.3 inactive; SID363567852 24.5 inactive; SID363585209 103 inactive
Cercam: SID363550357 63.7 inactive; SID363564866 68.6 inactive; SID363588411 72.5 inactive
Fnta: SID363545422 83.9 inactive; SID363548935 74.8 inactive; SID363562741 45.7 inactive
Cntnap1: SID363568811 82.1 inactive; SID363576203 87.6 inactive; SID363579019 87.9 inactive
Nrp: SID363562359 70.2 inactive; SID363567497 73.9 inactive; SID363584854 66.4 inactive
4921511C20Rik: SID363542486 71.1 inactive; SID363551977 99.6 inactive; SID363559582 104 inactive
